In PubChem BioAssay AID651595 (National Center for Advancing Translational Sciences (NCATS), 2012):
Fewer than 10 of roughly 1,100 compounds were called active. Inconclusive results (about 6%) are left out. Calls come from the whole dose curve; as a rule, active = well fitted cell-killing curve with a large enough effect; inconclusive = small, poorly fitted or top-dose-only effect; inactive = flat fitted curve, though single readings scatter. The list shows a part of the results.

Test: qHTS of Nrf2 Activators: Hit Validation in Cytotox Assay;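 note: compound exposure lasted 24 hours before the ATP readout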; for activity change, negative = cytotoxicity: 0% is about no effect
Conditions: Cell viability counter-screen for Nrf2 activator hits; series mostly up to 46.1 µM; activity change, negative = cytotoxicity: at the top concentration
Procedure, shortened: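 Intracellular ATP measured with CellTiter-Glo luminescence (30 min, room temperature) as a viability read-out. Cells: AREc32_fluc, cultured overnight before 24 h compound exposure at 7 concentrations, 37 °C; activity here marks cytotoxicity.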
Potency is the fitted concentration of half-maximal effect.

| Structure (SMILES) | activity change, negative = cytotoxicity | Potency |
| --- | --- | --- |
| CCOc1cc(/C=C/c2ccc3cccc([N+](=O)[O-])c3n2)cc(Cl)c1O | inactive: -14.7% |  |
| Cc1[nH]c2ccccc2c1N=Nc1ccccc1C(=O)O | inactive: 3.08% |  |
| O=C(NC(=S)Nc1cc(C(F)(F)F)ccc1Cl)c1ccccc1 | inactive: -2.22% |  |
| O=[N+]([O-])c1cnccc1-n1nnc2ccccc21 | inactive: -2.62% |  |
| COc1cc2c(cc1OC)/C(=C/c1ccc(Cl)cc1)C(=O)OC2 | inactive: 5.96% |  |
| Clc1ccc(C=Cc2ccccn2)cc1 | inactive: 1.25% |  |
| Cc1cccc(NC(=O)C2CC(=O)N/C(=N/N=C/c3ccco3)S2)c1 (configuration not stated) | inactive: 3.66% |  |
| CNc1ccc(Br)cc(C(=O)/C=C/c2ccc(Cl)cc2Cl)c1=O | inactive: 14.3% |  |
| Oc1ccc(Br)cc1-c1cc(-c2ccco2)[nH]n1 | inactive: -6.79% |  |
| CCOc1cc2ccccc2cc1C(=O)Nc1ccccn1 | inactive: 9.51% |  |
| O=C(Nc1ccccc1[N+](=O)[O-])C1COc2ccccc2O1 (configuration not stated) | inactive: 1.87% |  |
| Cc1ccc(S(=O)(=O)/N=C(/NNC(=O)c2cccc(Cl)c2)c2ccccc2)cc1 | inactive: -0.738% |  |
| OCC1OC(n2cnc3c(NCc4ccccc4O)ncnc32)C(O)C1O (configuration not stated) |  | active: 5.17 µM |
| N#Cc1cccn1-c1nccc(-c2cccs2)n1 | inactive: 6.19% |  |
| Cc1cc(-c2cccs2)nc(-n2cccc2)n1 | inactive: 4.06% |  |
| O=c1[nH]ncc(N/N=C\c2cccs2)c1Cl | inactive: 2.39% |  |
| CN1CCCC1CCNc1ccc2c(=O)c3ccccc3oc2c1 (configuration not stated) | inactive: 0.572% |  |
| O=C(NCCc1ccccn1)c1c(-c2ccsc2)sc2ccccc12 | inactive: 4.77% |  |
| Fc1ccc2nc(Nc3nc4c(F)cc(F)cc4s3)sc2c1 | inactive: -20.6% |  |
| O=C(CCS(=O)(=O)c1ccccc1)Nc1nc2c(s1)COc1ccccc1-2 | inactive: 5.27% |  |
| O=C(Nc1ccccc1)c1cc([N+](=O)[O-])ccc1Cl | inactive: 4.32% |  |
| O=c1cc(-c2ccco2)nc(SCc2cccc(Cl)c2)[nH]1 | inactive: -0.452% |  |
| Cc1cc(C)cc(OC(=O)CS(=O)c2ccc(C(F)(F)F)cc2[N+](=O)[O-])c1 (configuration not stated) | inactive: -16.8% |  |
| Clc1cc(Cl)cc(Nc2ncnc(-n3cccc3)n2)c1 | inactive: 8.55% |  |

Reprinted from the results shown, six compounds:

| Structure (SMILES) | activity change, negative = cytotoxicity | Potency |
| --- | --- | --- |
| Oc1ccc(Br)cc1-c1cc(-c2ccco2)[nH]n1 | inactive: -6.79% |  |
| CCOc1cc2ccccc2cc1C(=O)Nc1ccccn1 | inactive: 9.51% |  |
| O=C(Nc1ccccc1[N+](=O)[O-])C1COc2ccccc2O1 (configuration not stated) | inactive: 1.87% |  |
| Cc1ccc(S(=O)(=O)/N=C(/NNC(=O)c2cccc(Cl)c2)c2ccccc2)cc1 | inactive: -0.738% |  |
| OCC1OC(n2cnc3c(NCc4ccccc4O)ncnc32)C(O)C1O (configuration not stated) |  | active: 5.17 µM |
| N#Cc1cccn1-c1nccc(-c2cccs2)n1 | inactive: 6.19% |  |

The list continues.

| Structure (SMILES) | activity change, negative = cytotoxicity | Potency |
| --- | --- | --- |
| Cc1cccc(NC(=S)NC(=O)c2cccs2)n1 | inactive: 6% |  |
| COC(=O)c1ccc2nc(-c3cccc(Br)c3)c(Cc3ccccc3OC)n2c1 | inactive: -1.22% |  |
| COCCNC(=O)c1ccc(-n2c(-c3ccccc3)cc3c2CCC(C)C3)cc1 (configuration not stated) | inactive: -2.26% |  |
| O=C(Nc1nc2c(ccc3ccccc32)s1)c1ccco1 | inactive: -0.36% |  |
| N#Cc1cnc2cc(-c3ccccc3)nn2c1N | inactive: 9.63% |  |
| S=C(NCc1ccco1)Nc1ccccn1 | inactive: -4.48% |  |
| CCOc1ccccc1NC(=O)C1COc2ccccc2O1 (configuration not stated) | inactive: -1.63% |  |
| c1coc(-c2ccnc(-n3cccc3)n2)c1 | inactive: -3.75% |  |
| C#CCOc1ccc(/C=C2\SC(=S)N(Cc3cccnc3)C2=O)cc1 | inactive: -21.8% |  |
| CSc1ccccc1NC(=O)COC(=O)/C=C/c1ccco1 | inactive: -3.1% |  |
| Fc1cccc2sc(Nc3nc4ccccc4s3)nc12 | inactive: 3% |  |
| Cc1ccc(N=C2NC(=O)S/C2=C\c2ccco2)cc1 | inactive: -1.78% |  |
| O=C(Nc1c(O)c2ccccc2[nH]c1=O)c1ccco1 | inactive: 1.15% |  |
| c1ccc2c(c1)nnn2-c1ncnc2sccc12 | inactive: 3.73% |  |
| CCCn1c(-c2cccs2)nc2nc3ccccc3nc21 | inactive: 5.71% |  |
| NC(=O)N/N=C/c1ccccc1OC(=O)c1ccccc1Br | inactive: 3.21% |  |
| FC(F)(F)c1nnc2c(Sc3ccccn3)nc3ccccc3n12 | inactive: 10.5% |  |
| Cc1cccc(-c2nnc(-c3cccc4ccccc34)o2)c1 | inactive: 0.386% |  |
| O=C(CN1C(=O)S/C(=C\c2ccccc2Cl)C1=O)NC1C=CS(=O)(=O)C1 (configuration not stated) | inactive: 3.21% |  |
| Cc1cc(C)c2c(N)c(C(=O)c3ccc(Br)cc3)oc2n1 | inactive: -19.8% |  |
| O=C(Nc1cc(-c2nc3ncccc3o2)ccc1Cl)c1cccs1 | inactive: -12.6% |  |
| Cc1n[nH]c(=S)n1/N=C/c1ccc(-c2ccccc2[N+](=O)[O-])o1 | inactive: 4.13% |  |
| O=[N+]([O-])c1ccccc1/C=C/C=N/n1c(-c2ccco2)n[nH]c1=S | inactive: 9.42% |  |
| Cc1ccc2ccc(C3C(=O)c4ccccc4C3=O)nc2c1 | inactive: 3.2% |  |

| Structure (SMILES) | activity change, negative = cytotoxicity | Potency |
| --- | --- | --- |
| O=C(COCc1cc(-c2ccc(F)cc2)on1)Nc1cc(Cl)ccc1O | inactive: -14.5% |  |
| c1ccc(-c2cc3c(ccc4nonc43)nn2)cc1 | inactive: 0.408% |  |
| O=C1NC(=Nc2ccccc2)S/C1=C\C=C\c1ccco1 | inactive: 2.3% |  |
| O=C1/C(=C/c2ccccc2O)SC(=S)N1Cc1cccnc1 | inactive: 4.53% |  |
| CCc1ccc(/C=C/c2c([N+](=O)[O-])c(=O)n(C)c(=O)n2C)cc1 | inactive: 5.21% |  |
| CCOC(=O)CCn1c(=O)c2cccn2c2cccnc21 | inactive: 7.7% |  |
| Nc1nccc(-c2ccc(-n3cccc3)cc2)n1 | inactive: 7.15% |  |
| C#CCSc1nc(-c2cccs2)ccc1C#N | inactive: 1.12% |  |
| Cc1cc(NC(=O)CC(C)(C)C)nc2c1c(=O)oc1ccccc12 | inactive: 15.2% |  |
| O=C(N/N=C\c1ccco1)Nc1cccc(Cl)c1 | inactive: -10.8% |  |
| COc1ccccc1NC(=O)/C(C#N)=C/c1cccn1C | inactive: 2.18% |  |
| O=C(Nc1ccc(F)cc1)c1cc2ccccc2o1 | inactive: -16.7% |  |
| CC(=NNc1ccc2ccccc2n1)c1ccccc1O | inactive: -19.7% |  |
| CN1CCN(C(=O)CCN2C(=O)/C(=C/c3cccc(Br)c3)SC2=S)CC1 | inactive: 4.95% |  |
| Cc1c(=O)n(OCc2ccccc2)c2ccccc2[n+]1[O-] | inactive: 3.85% |  |
| N#CC(=C1C=CC(=NO)C(Cl)=C1)c1ccccc1 | inactive: 2.92% |  |
| O=C1c2cccc3cccc(c23)C(=O)N1Cc1ccco1 | inactive: 6.26% |  |
| O=C(NC(=S)Nc1ccc(Br)cn1)c1cccs1 | inactive: 2% |  |
| COc1cc2c(cc1NC(=O)c1ccco1)CCCC2 | inactive: 9.72% |  |
| C(=N\Nc1nc2ccccc2[nH]1)/c1c[nH]c2ccccc12 | inactive: 11.7% |  |
| Cc1c(C(=O)NCc2ccco2)oc2c(Cl)cccc12 | inactive: -2.64% |  |
| Cc1ccc(Cc2c(-c3ccco3)nc3c(C)cc(Br)cn23)cc1 | inactive: 2.16% |  |
| O=C(NCc1ccco1)c1ccccc1-c1nc(-c2ccccc2)no1 | inactive: -21.8% |  |
| COc1ccc(Cl)cc1C(=O)O/N=C(\N)c1ccccn1 | inactive: -3.19% |  |

| Structure (SMILES) | activity change, negative = cytotoxicity | Potency |
| --- | --- | --- |
| c1ccc2c(-c3nc4ncccc4o3)cccc2c1 | inactive: -2% |  |
| CC1(C)CC[C@]2(C(=O)n3ccnc3)CC[C@]3(C)[C@H](C(=O)C=C4[C@@]5(C)C=C(C#N)C(=O)C(C)(C)[C@@H]5CC[C@]43C)[C@@H]2C1 |  | active: 8.2 µM |
| COc1ccc([C@H]2Cc3cccc(O)c3C(=O)O2)cc1O | inactive: 1.16% |  |
| O=C(CC1S/C(=N/N=C/c2ccco2)NC1=O)Nc1ccccc1 (configuration not stated) | inactive: 2.97% |  |
| Cc1cccc(NC(=O)Nc2ccccc2[N+](=O)[O-])n1 | inactive: 5.2% |  |
| COc1ccc(-c2cc3ccccc3oc2=O)cc1NC(=O)c1ccc([N+](=O)[O-])o1 | inactive: -9.05% |  |
| O=C(/C=C/c1ccco1)NC(=S)Nc1nc(-c2ccc(Cl)cc2)cs1 | inactive: -26.2% |  |
| N#C/C(=C(/O)c1ccc(Br)s1)c1nc2ccccc2[nH]1 | inactive: -1.87% |  |
| CCCc1c(C(=O)N/N=C/c2cccs2)nnn1-c1nonc1N | inactive: 0.781% |  |
| O=C(/C=C/c1ccccc1Cl)Nn1cnc2ccccc2c1=O | inactive: -1.79% |  |
| O=C(Nc1cc(Br)ccc1O)c1cnn2c(C(F)F)cc(C3CC3)nc12 | inactive: 14.6% |  |
| Cc1cc(O)c(NC(=O)c2cc([N+](=O)[O-])ccc2Cl)cc1C | inactive: 1.19% |  |
| Oc1ccccc1-n1nc2ccc3nonc3c2n1 | inactive: 2.24% |  |
| Cc1cccc2cc3c(nc12)-c1ccccc1C3=O | inactive: -3.79% |  |
| Cc1ccc(C(=O)/C=C/c2ccc(-c3ccccc3[N+](=O)[O-])o2)cc1 | inactive: -3.82% |  |
| NS(=O)(=O)c1ccc(NC(=O)c2cc(-c3cccs3)nc3ccccc23)cc1 | inactive: 5.11% |  |
| CC1CN(c2sc(S(C)(=O)=O)nc2S(=O)(=O)c2ccc(Cl)cc2)CC(C)O1 (configuration not stated) | inactive: 5.4% |  |
| c1ccc(-c2nnc(-c3ccccc3)o2)cc1 | inactive: -19% |  |
| CC(/C=N/Nc1nnc2c(n1)[nH]c1ccccc12)=C\c1ccco1 | inactive: 5.44% |  |
| Brc1ccccc1/C=N/Nc1ccccn1 | inactive: 2.41% |  |
| Cc1cc(O)cc2c1C(=O)/C(=C/c1ccco1)O2 | inactive: -8.07% |  |
| O=C(COC(=O)/C=C/c1ccco1)NCc1ccccc1Cl | inactive: 4.46% |  |
| Cc1ccc(S(=O)(=O)c2nc(S(C)(=O)=O)sc2N2CC(C)OC(C)C2)cc1 (configuration not stated) | inactive: -1.79% |  |
| Fc1ccc2nncc(SCc3ccccc3Cl)c2c1 | inactive: 1.57% |  |

| Structure (SMILES) | activity change, negative = cytotoxicity | Potency |
| --- | --- | --- |
| Cc1cc(NC(=O)C2CCCC2)nc2c1c(=O)oc1ccccc12 | inactive: -13.8% |  |
| CC(C)N(C(=O)COC(=O)c1ccccc1C(=O)c1ccc(Cl)c([N+](=O)[O-])c1)C(C)C | inactive: 8.41% |  |
| Brc1ccc2nc(-c3ccco3)c(Cc3ccsc3)n2c1 | inactive: -1.38% |  |
| COc1cccc(C(=O)Nc2cc(Cl)c(O)c(Cl)c2)c1 | inactive: 3.69% |  |
| Cn1c(NC(=O)/C=C/c2ccccc2)cc(=O)n(C)c1=O | inactive: -3.69% |  |
| COC(=O)c1sc(NC(=O)c2ccco2)nc1C | inactive: -25.6% |  |
| CC(=O)c1cc2c(cc1NC(=O)CSc1nc3ccccc3o1)OCO2 | inactive: -2.64% |  |
| N/C(=N\OC(=O)c1cc(Cl)ccc1Cl)c1cccnc1 | inactive: -4.62% |  |
| CCOc1ccccc1NS(=O)(=O)c1c(C(=O)OC)sc2cccc(F)c12 | inactive: -1.18% |  |
| Cc1cc(C)c(C#N)c(SCC(=O)c2cccs2)n1 | inactive: 3.09% |  |
| O=C(N/N=C/C(Br)=C/c1ccccc1)c1ccc([N+](=O)[O-])cc1 | inactive: -1.16% |  |
| Cc1ncc(N=Nc2ccccc2)c(-c2ccccc2)n1 | inactive: 8.88% |  |
| CCSc1ncc(Cl)c(C(=O)Nc2ccccc2)n1 | inactive: 1.02% |  |
| COc1ccccc1NC(=O)c1cnc(SCC(=O)NCCc2ccccc2)n(C)c1=O | inactive: -18.2% |  |
| O=C(CCCCCCC(=O)Nc1ccccc1)NO | inactive: -11.5% |  |
| Cc1cc(SCC(=O)N/N=C/c2ccco2)nc2ccccc12 | inactive: -1.85% |  |
| Cc1cccc(CC2S/C(=N/N=C/c3ccco3)NC2=O)c1 (configuration not stated) | inactive: 5.65% |  |
| N#C/C(=C\c1c(Oc2ccc(Cl)cc2)nc2ccccn2c1=O)C(=O)NC1CCS(=O)(=O)C1 (configuration not stated) | inactive: 6.87% |  |
| CCn1ncc(Br)c1C(=O)Nc1cc([N+](=O)[O-])ccc1C | inactive: 1.52% |  |
| CCOC(=O)c1ccccc1N/C=C/C(=O)c1cccs1 | inactive: -4.29% |  |
| O=C(/C=C/c1ccco1)Nc1ccc2nn(-c3ccccc3)nc2c1 | inactive: -7.5% |  |
